# These are yes or no findings as the source states them, for the method shown. Some binding calls cover weakened binding; strength is not graded here.
# Protein sequences, listed by entry. Tags and fused reporters are not part of them. Residues count along the entry.
# UniProt Q15116, residues 25-167: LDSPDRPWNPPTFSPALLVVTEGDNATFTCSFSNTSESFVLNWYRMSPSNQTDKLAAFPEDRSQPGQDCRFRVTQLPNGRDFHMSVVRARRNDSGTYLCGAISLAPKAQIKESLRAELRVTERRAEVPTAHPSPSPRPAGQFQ
# Target: human PD-1 (human) (UniProt Q15116)
# Experiment: ELISA on coated huPD-1
binder,measurement,value
"PMAB267 (antibody, human IgG1, kappa, V domains shown) VH: QVQLVQSGAEVKKPGASVKVSCKASGYSFTTYYMHWVRQAPGQGLEWMGIIQPSGGSTSYAQKFQGRVTMTRDTSTSTVYMELSSLRSEDTAVYYCASGWVYWGQGTLVTVSS VL: DIQMTQSPSSLSASVGDRVTITCQASRSISSYLAWYQQKPGKAPKLLIYAASSLQSGVPSRFSGSGSGTDFTLTISSLQPEDFATYYCQQSYSTPPTFGPGTKVDIKR",binding,binds

# Reference: patent publication US20240301064A1
